At least one structure is not confirmed: it was looked up by name or label, or the drawing left a doubt.
Columns and labels:
purified His6-hPGES [1] = target: T1, purified His6-hPGES (Homo sapiens, UniProt O14684); test: Isomerization of PGG2 into 15-hydroperoxy-PGE2 by purified His6-hPGES; format: biochemical; parameters: made in house; host or cells: E. coli BL21(DE3) with pLysSL; settings: 37° C., steady state, PGG2 as substrate
T1 sequence (O14684 1-152): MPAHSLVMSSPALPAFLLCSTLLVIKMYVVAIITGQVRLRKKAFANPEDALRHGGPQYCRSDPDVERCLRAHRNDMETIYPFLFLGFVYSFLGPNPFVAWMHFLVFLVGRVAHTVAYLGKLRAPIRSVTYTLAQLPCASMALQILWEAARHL
Description: PGG2 was prepared similarly to PGE2 (described above), omitting the L-tryptophan. The reaction was terminated by lowering the pH to 3 by adding 6 μl HCl (1M). Then, 45 μl acetonitrile was added and centrifugation was performed at 14,000 g, for 1 minute to remove the protein. […] In order to determine the formation of PGE2 and 15-Hydroperoxy PGE2, an aliquot (100 μl) was analyzed by RP-HPLC, combined with UV detection at 195 nm. The products were quantified based on the peak areas from known amounts of injected prostaglandins.

purified His6-hPGES [2] = target: T1, purified His6-hPGES; test: PGES activity assay: glutathione dependent conversion of PGH2 to PGE2 by purified His6-hPGES; format: biochemical; parameters: made in house; host or cells: E. coli BL21(DE3) with pLysSL; settings: 37° C., steady state
Description: PGE synthase activity of the purified polypeptide, i.e., the ability to catalyze the conversion of a substrate of PGES into a 9-keto, 11-alpha-hydroxy form, e.g., PGH2 into PGE2 can be determined as follows. […] The polypeptide suspected of having PGES activity is incubated in a buffer, e.g., a sodium phosphate buffer in the presence of about 1 to 5 mM, preferably, 2.5 mM glutathione (GSH). The reaction is started by the addition of PGH2 at about 5 to 20 μM, and preferably 10 uM, and the reaction mixture is then incubated either at 37° C., at room temperature, or preferably, at 0° C., for about one to ten minutes, and preferably, for about one minute. The reaction can be terminated by the addition of a solution reducing the pH to about 3 or 3.2. This can be achieved by the addition of acetonitrile/HCl (as described in Jakobsson et al. (1999) PNAS 96:7220) or by the addition of FeCl2, citric acid, and/or 11-beta PGE2, as described in the Examples. The formation of PGF2 alpha, PGE2 and PGD2 can be determined by reverse-phase high pressure liquid chromatograph (HPLC) and UV detection at 195 nm. […] The samples are then ready for HPLC. […]
The remaining protein was divided in two parts, one was stored at 4° C. for 5 days, and one was frozen and stored at −20° C. for the same time. […] PGES activity was determined, as described above, for various amounts of protein. […]

SMILES | kcat/KM (purified His6-hPGES [1]) [M⁻¹ s⁻¹] | kcat/KM (purified His6-hPGES [2]) [M⁻¹ s⁻¹]
CCCCC[C@@H](/C=C/[C@@H]1[C@@H](C/C=C\CCCC(=O)O)[C@@H]2C[C@H]1OO2)OO [PGG2] | 470000 | 
CCCCC[C@H](O)/C=C/[C@@H]1[C@@H](C/C=C\CCCC(=O)O)[C@@H]2C[C@H]1OO2 [PGH2, Prostaglandin endoperoxide H2] |  | 310000
